# Assay results taken from PubChem BioAssay AID1508600 (Functional Genomics Laboratory (NCATS/FGL), 2020).
# Out of some 53,000 sequences screened, about 3,700 (7%) were called active.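 Rule for the calls: active = gene knockdowns whose robust z-score for IL-1 alpha signal is at least 2 or at most -2, so actives lie on both sides; inactive = the rest.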 This is one part of the list.
# Test: Components of the Cytosolic LPS Sensing Pathway: Gene Identification via Genome-wide siRNA Screen;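 note: robust z of the log signal after scaling to non-targeting control siRNA wells of the plate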
# Conditions: RAW264.7 macrophages, IL-1a HTRF, actives lie on both sides, screened at 100 nM (by protocol), cells primed 5 h with Pam3CSK4 first
# Method in brief: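 Read-out: IL-1a HTRF on supernatant, divided by plate negative-control median ×100, log-transformed and converted to robust z-score. Cells were RAW264.7 given 100 nM siRNA, Pam3CSK4-primed 5 hours, then LipidA-transfected 24 hour.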
row,Sequence,z-score
1,GGCUUUUUAGGAAACUAUATT against Olfr361,active: 2.12
2,CGCCUUCAUAAUGUAGUUGTT against Defb37,inactive: 0.601
3,GGCAGUGUUUUGUCAAGUUTT against Fgd4,inactive: 1.21
4,GCAUGUGCCUGACUGGGUUTT against Selenoi,inactive: 0.604
5,CCUGGCAGAACUUUGAUAGTT against Fars2,inactive: 0.883
6,GCGAGCUAAACAUUCUGAATT against Mia2,inactive: -1.71
7,GCCGAGAAACAUCCCAAACTT against Rnf114,inactive: -0.964
8,GGCCAAAGAGAUAUAUAUATT against Rassf3,inactive: -0.307
9,GGUGGACUCAAAAUUAGAATT against Ttc39b,inactive: 0.273
10,GGAAUACAGAUUUUUCAGATT against Frmd6,inactive: -1.15
11,GGCAAACCUGAAUUUACGGTT against Pcdha9,inactive: 0.124
12,GGCUCCAGUAAUUGAUAAATT against Sycp3,inactive: -0.0955
13,GGCUAAUAAAGUUGAGAAATT against Mcrip2,inactive: -0.852
14,CCCUUUGUUAUACUCUAAATT against Tra2a,inactive: 0.707
15,GAUUUGCUACUCCUCUACGTT against Olfr1273-ps,inactive: 1.42
16,CCAUCAUUCUCUGGUCAAATT against Sdha,inactive: 1.1
17,GGUCUGAUUUUCAACACCUTT against Aqp6,inactive: -1.14
18,GCCAGUCAUUAUAGUUAACTT against Slc47a1,inactive: 1.57
19,GGGAUAGUUACCUAAGACATT against Adarb2,inactive: 0.593
20,CGGAACACACCAAGAAUCUTT against Pick1,inactive: 0.447
21,CCGCUUUCGGCAAGUAUGGTT against Rbmxl2,inactive: 1.64
22,GCCAGUAACUCAACAGAAGTT against Umod,inactive: -0.269
23,CCAAGCUAUUGGCCCUGACTT against Defb38,inactive: 0.251
24,GCUAUAAUGCUGGAGUCAATT against P3h2,inactive: 0.27
25,GGUUGUUUUGCAUUUGUGUTT against Slc25a14,inactive: 0.158
26,GGAGGUCCAAGAGAAAUGUTT against Hacd4,inactive: 0.0113
27,CCAUAGAGCUAAGUUAUUGTT against Mlec,inactive: -0.0865
28,GGUAUAGCGGUGCAUGUCATT against Bmp8a,inactive: -0.823
29,CCCAUAGUGAAUCAUAGUGTT against Olfr225,inactive: 0.451
30,GGAUGUCCACAUCAAGGCUTT against Dscam,inactive: -0.034

# Looked up above:
# Value of GGCAGUGUUUUGUCAAGUUTT against Fgd4 under z-score: inactive: 1.21
# Value of GCAUGUGCCUGACUGGGUUTT against Selenoi under z-score: inactive: 0.604
